“Also recorded” adds a separate entry of the source. No dose or concentration is given here for some results.
Tested on: peptide-sensitized autologous and allogeneic PHA blasts or LCLs
Experiment: HLA class I restriction analysis with CTL lines
Type: cell-based, human
Settings: 20mer peptides / minimal sequence, Table 4

Row | Sequence | HLA Restriction
1 | AHELVCSMENTRATKMQVIG | HLA B57
2 | ATVQGQNLKYQEFFWDANDI | HLA B44
3 | FEQPTETPPEDLDTLSLAIE (human cytomegalovirus IE2 CTL epitope peptide) | HLA B41
4 | IIKPGKISHIMLDVAFTSHE | HLA B35
5 | ILARNLVPMVATVQGQNLKY | HLA A2
6 | IQIIYTRNHEVKSEVDAVRC | HLA A2
7 | LNIPSINVHHYPSAAERKHR | HLA B35
8 | LTVSGLAWTRQQNQWKEPDV | HLA B8
9 | MNGQQIFLEVQAIRETVELR | HLA B57 & B58
10 | MQLIPDDYSNTHSTRYVTVK (human cytomegalovirus gB CTL epitope peptide) | HLA DR7
11 | PQYSEHPTFTSQYRIQGKLE | HLA A24; also recorded: HLA A1
12 | PRVTSPTHPLSQMNHPPLPD | HLA B35
13 | PVDLLGALNLCLPLMQKFPK (human cytomegalovirus IE2 CTL epitope peptide) | HLA A1/B8
14 | QEFFWDANDIYRIFAELEGV | HLA B44; also recorded: HLA A1/A24
15 | QYDPVAALFFFDIDLLLQRG | HLA B35
16 | RQTEKHELLVLVKKAQLNRH | HLA DR*
17 | RSYAYIYTTYLLGSNTEYVA (human cytomegalovirus gB CTL epitope peptide) | HLA B41
18 | RVKIDEVSRMFRNTNRSLEY | HLA A1/B8
19 | SICPSQEPMSIYVYALPLKM | HLA B35
20 | SSSSSSCSSASDSESESEEM (human cytomegalovirus IE2 CTL epitope peptide) | HLA B35
21 | TAAKAYAVGQFEQPTETPPE (human cytomegalovirus IE2 CTL epitope peptide) | HLA B41
22 | THQLCPRSSDYRNMIIHAAT (human cytomegalovirus IE2 CTL epitope peptide) | HLA A1/B8
23 | TRATKMQVIGDQYVKVYLES | HLA B57
24 | TYEKYGNVSVFETSGGLVVF (human cytomegalovirus gB CTL epitope peptide) | HLA A29
25 | VFTWPPWQAGILARNLVPMV | HLA A2
26 | VKSEVDAVRCRLGTMCNLAL | HLA A2
27 | VLCCYVLEETSVMLAKRPLI (human cytomegalovirus IE1 CTL epitope peptide) | HLA A2
28 | YRNMIIHAATPVDLLGALNL (human cytomegalovirus IE2 CTL epitope peptide) | HLA A1/B8/B35; also recorded: HLA A2
29 | YYTSAFVFPTKDVALRHVVC | HLA B35
